This assay addresses T1, MYG1 stably overexpressed in SW480 cells (human) (UniProt Q9HB07).
T1 sequence: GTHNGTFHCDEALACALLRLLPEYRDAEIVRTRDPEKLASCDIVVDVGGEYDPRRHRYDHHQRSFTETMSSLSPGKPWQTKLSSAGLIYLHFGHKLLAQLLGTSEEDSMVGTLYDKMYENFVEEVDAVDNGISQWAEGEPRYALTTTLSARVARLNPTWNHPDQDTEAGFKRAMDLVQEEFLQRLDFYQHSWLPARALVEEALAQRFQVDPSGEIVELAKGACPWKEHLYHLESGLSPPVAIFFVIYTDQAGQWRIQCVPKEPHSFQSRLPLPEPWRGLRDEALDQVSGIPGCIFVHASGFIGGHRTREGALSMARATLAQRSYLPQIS
Kind of assay: affinity purification with mass spectrometry; nucleus and mitochondria separated from SW480 cells overexpressing MYG1; co-immunoprecipitation of MYG1; proteins identified by IP-MS (LC/MS).

The chains behind the UniProt entries cited, without tags or fusion partners.
UniProt P99999: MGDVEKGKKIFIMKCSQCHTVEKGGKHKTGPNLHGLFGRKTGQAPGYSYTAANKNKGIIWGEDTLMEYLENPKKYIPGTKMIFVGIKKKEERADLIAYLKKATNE
UniProt P14618: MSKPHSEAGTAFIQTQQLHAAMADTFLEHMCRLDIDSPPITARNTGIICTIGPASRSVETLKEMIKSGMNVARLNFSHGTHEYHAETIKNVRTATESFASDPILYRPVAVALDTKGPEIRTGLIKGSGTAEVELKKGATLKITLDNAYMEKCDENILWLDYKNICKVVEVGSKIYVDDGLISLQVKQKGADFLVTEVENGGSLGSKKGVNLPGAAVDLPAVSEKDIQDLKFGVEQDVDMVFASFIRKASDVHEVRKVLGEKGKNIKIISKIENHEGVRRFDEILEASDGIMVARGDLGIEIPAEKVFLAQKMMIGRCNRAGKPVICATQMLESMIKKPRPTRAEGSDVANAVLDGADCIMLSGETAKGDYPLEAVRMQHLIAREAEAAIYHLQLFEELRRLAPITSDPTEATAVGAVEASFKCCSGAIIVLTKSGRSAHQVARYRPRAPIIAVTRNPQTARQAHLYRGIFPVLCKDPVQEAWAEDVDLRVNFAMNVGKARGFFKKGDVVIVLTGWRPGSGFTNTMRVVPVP

No constants are given. Whether binding was seen depends on the method and setting. Binding seen in cells or lysates may run through a third protein. These calls come from enrichment with a bait or labelling near it, and not all partners need be listed.

Turning to Cyt c (from UniProt P99999 1-105), the binding result is listed as “binds”. The entry for “PKM2 in SW480 cells (from UniProt P14618 1-531) (enzyme)” is “binds”.

(Values after paper PMC11167044.)
